In the test the test system is Candida albicans. Description: Antimicrobial activity against Candida albicans after 18 to 20 hrs at 37degC by disc diffusion method. The format is functional. In outline: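 Fungal inoculum of 1 × 10⁶/mL spread on potato dextrose agar. 6 mm filter paper discs received sample dissolved in DMSO. Nystatin at 100 U/disc was the antifungal control. Plates incubated 18–20 h at 37 °C, then the zone of inhibition was measured in mm.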
Background: Agar diffusion results depend on both activity and mobility in agar.

For NYSTATIN, the inhibition zone (IZ) was determined as 22 mm.
